From PubChem BioAssay AID2685 (National Center for Advancing Translational Sciences (NCATS), 2010) come the findings set out here.

The term AC50 denotes the midpoint of the concentration-response curve, whichever way the signal moves. A high value points to weaker potency.

This assay in a line: qHTS Assay for Lipid Storage Modulators in Drosophila S3 Cells.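 For cell number change: cells counted by Cell Tracker Red CMTPX staining in the red channel.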 The conditions noted are these: BODIPY lipid droplet fluorescence, 18-24 h; for cell number change: measured here: cell count max response, cells fed with added oleic acid. The procedure, abridged: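 Drosophila S3 cells got compounds at several concentrations plus oleic acid (400 uM solution). Laser-scanning cytometry with 488 nm excitation read lipid droplets at 500-530 nm and cells at 575-640 nm. Percent activity was relative to 20 uM Triacsin C.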

Where [1] appears, read: measured here: lipid fluorescence (Fed channel) AC50, cells fed with added oleic acid.
Where [2] appears, read: measured here: cell number channel AC50, cells fed with added oleic acid.

SMILES strings stand for the structures. The list shows a part of the results. The main result of the screen is listed elsewhere. These columns were measured beside it and carry no call. Most of these compounds were active or inconclusive in the main read-out, so they are no random draw. Potencies come from curve fits of mixed quality, noted in brackets.

In the case of `CS(=O)(=O)N(CC(=O)N1CCN(c2ccccc2)CC1)C1CCCCC1`, the cell number change is 2.63%. For the same compound, the concentration at half-maximal activity (AC50) under setting [1] was 0.0058 µM [falling, full curve, poor fit].
For the compound `Cc1cc(C(F)(F)F)c(C#N)c(SCC(=O)NC2CC2)n1`, the cell number change turned out to be 0.203%.
On to `O=c1[nH]c(C2CCN(S(=O)(=O)/C=C/c3ccccc3)CC2)nc2c1nnn2Cc1ccc(F)cc1`, for which the cell number change was -15.8%. Moreover, the half-maximal activity concentration (AC50) under setting [1] is 5.62 µM [rising, single point].
Take `CC(=O)c1ccc(N2CCN(C(=O)C(=O)c3cn(CC(=O)N4CCCCCC4)c4ccccc34)CC2)cc1`: the AC50 under setting [1] was 18.4 µM [falling, partial curve, poor fit].
Consider `O=C1CN(C(=O)c2ccc(Cl)nc2)c2ccccc2N1`, for which the cell number change was -44.5%. The AC50 under setting [2] was 1.46 µM [falling, partial curve].
For the compound `Nc1ncn(C23CC4CC(CC(C4)C2)C3)n1`, the AC50 under setting [1] was 5.8 µM [falling, single point].
With `COc1cccc(NC(=O)CCN2CCOCC2)c1`, the cell number change turned out to be 8.14%. Besides, the half-maximal activity concentration (AC50) under setting [1] was 29.1 µM [rising, single point].
As for `COc1ccc(-c2csc(NC(=S)NC(=O)c3ccco3)n2)cc1Br`, the cell number change is 76.7%. Also, under setting [2], the AC50 was 29.1 µM [rising, single point]. Further, the AC50 under setting [1] is 20.6 µM [falling, single point].
In the case of `Cn1c(=O)cc(OCCCC(=O)NCc2ccco2)c2ccccc21`, the half-maximal activity concentration (AC50) was 0.651 µM [rising, single point] under setting [2] and 0.58 µM [rising, single point] under setting [1].
For the compound `COc1ccc2cc(OCC(=O)NNC(=O)Nc3ccc(OC)c(OC)c3)ccc2c1`, the cell number change stood at 15.8%.
As for `CC(C)CC(NS(=O)(=O)c1ccc2c(c1)oc(=O)n2C)C(=O)N1CC=C(c2ccccc2)CC1` (configuration not stated), the cell number change came out at 37.2%. Also, the concentration at half-maximal activity (AC50) under setting [2] was 0.058 µM [rising, full curve, poor fit]. Further, the concentration at half-maximal activity (AC50) under setting [1] is 20.6 µM [rising, partial curve].
In the case of `O=C(Nc1nc(-c2ccccn2)cs1)c1cccc(-n2cnnn2)c1`, the cell number change is 0.851%.
Consider `CCOC(=O)c1ccc(OCCOc2cccc(C)c2)cc1`, for which the cell number change is -4.99%. Under setting [1], the AC50 is 29.1 µM [rising, single point].
Turning to `CCn1c(SCC(=O)Nc2ccccc2C(=O)OC)nnc1-c1cccc(C)c1`, the half-maximal activity concentration (AC50) under setting [1] is 0.231 µM [rising, full curve, poor fit].
Turning to `COc1ccc2cc(CN(CCc3ccccc3)Cc3nnnn3CC3CCCO3)c(=O)[nH]c2c1` (configuration not stated), the cell number change was -23.6%. The AC50 under setting [1] was 4.61 µM [rising, partial curve].
Regarding `O=C1CCCN=C(Nc2ccc(F)c(Cl)c2)S1`, the cell number change was found to be 7.96%. In addition, the AC50 under setting [1] is 4.61 µM [rising, single point].
In the case of `O=C(NCc1ccccn1)c1nc(-c2ccc(C(F)(F)F)cc2)no1`, the cell number change was determined as 23.1%.
Consider `CNC(=O)NCC12CC3CC(CC(C3)C1)C2`, for which the cell number change is -8.79%. The half-maximal activity concentration (AC50) under setting [1] was 3.66 µM [falling, single point].
On to `CC(C)[C@H](NC(=O)Nc1ccc(S(N)(=O)=O)cc1)C(=O)O`, for which the cell number change was -0.866%. Under setting [1], the concentration at half-maximal activity (AC50) was 0.517 µM [falling, full curve, poor fit].
For `CN(C)CCCN(C(=O)c1ccc2c(c1)CCCC2)c1nc2cc3c(cc2s1)OCO3`, the cell number change was -14.7%. Also, the half-maximal activity concentration (AC50) under setting [1] was 14.6 µM [falling, single point].
For `CN=C1SC(CC(=O)Nc2ccc(N3CCOCC3)cc2)C(=O)N1C` (configuration not stated), the cell number change is -9.78%.
On to `COc1ccc(CC(=O)Oc2cc(C)[nH]c(=O)c2[N+](=O)[O-])cc1`, for which the cell number change was -3.77%.
For the compound `O=C(CSc1n[nH]c(-c2ccncc2)n1)NCCc1ccccc1`, the cell number change is -2.19%.
Regarding `CC(C)(C)NC(=O)COC(=O)c1ccc(S(=O)(=O)N2CCCCCC2)cc1`, the cell number change is -21.8%.
In the case of `O=C(c1cc(S(=O)(=O)N2CCCC2)c(Cl)cc1Cl)N1CCCC1`, the cell number change was -4.78%.
`Cc1cc(Cl)ccc1OCC(=O)N(Cc1cccs1)C1CCS(=O)(=O)C1` (configuration not stated): the cell number change worked out at 2.25%. In addition, the AC50 under setting [1] is 6.51 µM [rising, single point].
For the compound `CC(C)CC(NC(=O)c1ccc(Cl)cc1)C(=O)OCC(=O)c1ccc2c(c1)NC(=O)CO2` (configuration not stated), the cell number change is -62.9%. Besides, the AC50 under setting [2] is 2.31 µM [falling, full curve]. Further, the concentration at half-maximal activity (AC50) under setting [1] is 0.58 µM [falling, single point].
With `CCn1ncc(NC(=O)Nc2cccc(C(F)(F)F)c2)c1C(N)=O`, the cell number change is -14%.
Take `COc1cc(/C=C/C(=O)O)cc(S(=O)(=O)N2CCc3ccccc3C2)c1OC`: the cell number change was -26.4%. For the same compound, the AC50 under setting [1] is 29.1 µM [falling, partial curve, poor fit].
Take `Cc1ccc(-c2[nH]ncc2CNCCc2cnn(-c3ccccc3)c2)cc1C`: the cell number change was -53.2%. Under setting [2], the AC50 is 16.4 µM [falling, single point]. The AC50 under setting [1] is 29.1 µM [falling, single point].
As for `COc1ccc(C(=O)NC2CC2)cc1OC1CCN(Cc2cc(C)cc(C)c2)CC1`, the cell number change is -23.8%.
In the case of `Cc1ccc2c(c1)/C(=N/OC(=O)c1ccc(F)cc1)CCS2`, the cell number change was -5.89%. Besides, the concentration at half-maximal activity (AC50) under setting [1] is 5.17 µM [falling, single point].
As to `O=C(Cn1nnc(-c2ccccc2)n1)N/N=C/c1cccc([N+](=O)[O-])c1`, the cell number change came out at 16.1%.
Still for that read-out and setting: for `Cc1ccc(C(=O)NCc2ccc(Cl)cc2)cc1S(=O)(=O)N1CCCCC1` the value was -3.58%.
For `COc1ccc(-c2ccc(OC)c([C@H]3[C@H]4C=CC[C@@H](C)[C@@H]4C(=O)N3Cc3ccccc3)c2)cc1OC`, the cell number change is 7.48%. Further, under setting [1], the AC50 is 1.64 µM [rising, partial curve].
With `COc1ccc(C(=O)NNC(=O)C(NC(=O)c2cc(OC)cc(OC)c2)C(C)C)cc1` (configuration not stated), under setting [1], the AC50 is 7.31 µM [rising, partial curve].
Regarding `CCC(C)Sc1cccc(-c2nc3ccc(C)cn3c2NCc2ccccc2)c1` (configuration not stated), the cell number change was -90.8%. For the same compound, the AC50 under setting [2] is 23.1 µM [falling, single point]. The AC50 under setting [1] was 6.51 µM [falling, single point].
Consider `Cc1ccc(-n2ncc3c2CC(C)(C)CC3NC(=O)c2ccc[n+]([O-])c2)cc1` (configuration not stated), for which the cell number change was 40.7%. Also, under setting [1], the AC50 was 13 µM [rising, partial curve].
Consider `COC(=O)c1ccccc1NC(=O)Cn1c(=O)oc2ccc(Cl)cc21`, for which the cell number change came to 37%. Under setting [2], the AC50 is 5.17 µM [falling, single point]. Also, the half-maximal activity concentration (AC50) under setting [1] was 4.11 µM [rising, single point].
`O=C(Cn1cnc2ccccc21)NCc1ccccc1`: the cell number change was -26.9%.
For the compound `COC(=O)c1ccc(CSc2nnc(C)n2N)o1`, the cell number change was -5.47%.
Consider `Cc1sc2nc(SCC(=O)NCCOCCO)n(C)c(=O)c2c1C`, for which the cell number change was -25.4%. The AC50 under setting [1] is 0.184 µM [rising, full curve, poor fit].
For the compound `COc1cc(C)ccc1OCCOc1c(C)cccc1Cl`, the cell number change was -32.3%. Under setting [1], the AC50 is 0.092 µM [rising, full curve, poor fit].
Take `Cc1nc(SCC(=O)N2CCOCC2)c2c(C)c(C)sc2n1`: the cell number change is -2.99%. In addition, under setting [1], the AC50 was 0.00461 µM [rising, full curve, poor fit].
`CCOc1ccccc1CNC(=O)CCc1cn(C)c2ccccc12`: the cell number change was 17.7%. For the same compound, under setting [1], the half-maximal activity concentration (AC50) is 6.51 µM [rising, single point].
On to `O=C(Nc1cc(Br)ccc1O)C1CC(c2ccccc2Cl)=NO1` (configuration not stated), for which the cell number change was -48.1%. Further, the AC50 under setting [2] was 23.1 µM [falling, single point]. Moreover, under setting [1], the AC50 was 23.1 µM [falling, single point].
Turning to `O=C(CCN1C(=O)c2ccccc2S1(=O)=O)NCc1ccccc1Cl`, the cell number change was -38.9%. For the same compound, the half-maximal activity concentration (AC50) under setting [2] is 20.6 µM [falling, single point]. Under setting [1], the AC50 is 23.1 µM [falling, single point].
For the compound `O=C(NCC1(N2CCCCC2)CCCCC1)c1ccc(S(=O)(=O)N2CCCC2)cc1`, the cell number change worked out at 2.34%. Moreover, under setting [1], the half-maximal activity concentration (AC50) is 29.1 µM [rising, single point].
For `CCn1cc(/C=C2\SC(=O)N(CC(=O)Nc3ccc4c(c3)OCO4)C2=O)c2ccccc21`, the cell number change is -0.333%. In addition, under setting [1], the concentration at half-maximal activity (AC50) was 11.6 µM [rising, partial curve].
In the case of `CN1CCCC(OC(=O)c2cccc(Br)c2)C1` (configuration not stated), the cell number change was 12%.
Consider `O=C(C1CCCN(S(=O)(=O)c2cccc3nonc23)C1)N1CCN(c2ccccc2)CC1` (configuration not stated), for which the cell number change is 35.2%. For the same compound, the AC50 under setting [2] was 8.2 µM [rising, partial curve, poor fit]. Further, under setting [1], the AC50 is 3.66 µM [rising, full curve].
In the case of `CC(=O)Nc1ccc(S(=O)(=O)Nc2ccc(S(=O)(=O)Nc3nc(C)cc(C)n3)cc2)cc1`, the cell number change was 16.4%.
Regarding `COc1ccc(C2=NOC(Cn3nc(C(=O)O)cc3-c3ccccc3)C2)cc1` (configuration not stated), the cell number change came to 13.2%. In addition, the AC50 under setting [1] was 0.517 µM [falling, full curve].
With `CCCC(=O)NC(Nc1ccc(S(=O)(=O)Nc2ncccn2)cc1)(C(=O)OCC)C(F)(F)F` (configuration not stated), the cell number change is -1.13%.
The same measure, in the same setting: for `CCn1cc(/C=C(\NC(=O)c2ccc(C)cc2)C(=O)NCCN2CCOCC2)c2ccccc21` the value was 4%.
Consider `O=C(O)c1cn(Cc2ccccc2)c2ccccc2c1=O`, for which the cell number change was -1.97%. Besides, under setting [1], the half-maximal activity concentration (AC50) was 25.9 µM [rising, single point].
As for `CC(=O)Nc1ccc(NC(=O)C(C)OC(=O)/C=C/c2ccc3c(c2)OCO3)cc1` (configuration not stated), under setting [1], the AC50 was 0.082 µM [rising, full curve].
`COc1ccc2c(c1OC)C(=O)OC2Nc1nc(-c2ccc([N+](=O)[O-])cc2)cs1` (configuration not stated): the concentration at half-maximal activity (AC50) under setting [1] is 16.4 µM [rising, single point].
With `COc1ccc(Nc2nc(N)nc(CSc3nccc(C)n3)n2)cc1`, the cell number change was found to be 0.331%. In addition, the half-maximal activity concentration (AC50) under setting [1] is 4.61 µM [rising, full curve].
Take `O=C(Cc1ccccc1Cl)Nc1ccc(S(=O)(=O)N2CCOCC2)cc1`: the concentration at half-maximal activity (AC50) under setting [1] was 1.64 µM [falling, partial curve].
Turning to `CC(=O)Cc1nsc(Nc2ccc(F)cc2)n1`, the cell number change is -2.71%.
Take `COc1ccccc1/C=C/C=N/NC(=O)Cc1cccs1`: the cell number change was -8.15%. The AC50 under setting [1] was 0.411 µM [rising, full curve, poor fit].
For `CCSc1ncc(Cl)c(C(=O)Nc2cc(C)ccc2C)n1`, the cell number change amounted to 20%. Also, the AC50 under setting [1] is 0.00461 µM [rising, full curve, poor fit].
With `Cc1ccc(S(=O)(=O)N2CCCC2C(=O)Nc2nc3c(s2)CCCC3)cc1` (configuration not stated), the concentration at half-maximal activity (AC50) under setting [2] was 2.91 µM [rising, single point].
With `O=c1oc2ccccc2c(NCc2ccccc2)c1[N+](=O)[O-]`, the cell number change was -5.49%. For the same compound, the AC50 under setting [2] is 0.461 µM [falling, full curve]. The half-maximal activity concentration (AC50) under setting [1] was 2.59 µM [rising, full curve].
